Data source: PubChem BioAssay AID1259405 (NCATS, 2018)

Purpose: 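Mouse-designed siRNAs used to find CHO productivity engineering targets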 (primary screen)
Cell system: Chinese hamster CHO-K1 ovary cells with stable secreted eGFP expression
Knock-down reagent: single siRNA against mouse genes, 0.8 pmol siRNA per well (2 µl of 400 nM stock)
Timing: 3 days
Measurement: 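Percent of the per-plate non-targeting control median for intracellular GFP per well by laser scanning cytometry and for cell viability by ATP luminescence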
Reading the numbers: GFP, % of control: higher = more GFP per well, higher productivity; viability (ATP), % of control: higher = more viable cells (more ATP)
Active means: 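a knock-down is called active if GFP reaches 120% or more of non-targeting control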
The whole screen tested about 50,000 reagents; this is a part drawn at random. Over the whole deposit, about 4,000 (8%) are marked active. 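Mouse siRNA library applied to hamster cells; one well for each siRNA.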 The numbers tell different reagents against one gene apart.

Against Acsm4 (acyl-CoA synthetase medium-chain family member 4) #1 the deposit lists GFP, % of control 35.6; viability (ATP), % of control 50; inactive.
Silencing of Acsm4 (acyl-CoA synthetase medium-chain family member 4) #2 resulted in: GFP, % of control 71.6; viability (ATP), % of control 91.1; inactive.
With knock-down of Acsm4 (acyl-CoA synthetase medium-chain family member 4) #3 the results were GFP, % of control 54.3; viability (ATP), % of control 55.2; inactive.
After knock-down of 9130230L23Rik (RIKEN cDNA 9130230L23 gene) #1, the record shows GFP, % of control 141; viability (ATP), % of control 101; active.
Knock-down of 9130230L23Rik (RIKEN cDNA 9130230L23 gene) #2 resulted in: GFP, % of control 77.6; viability (ATP), % of control 77; inactive.
For 9130230L23Rik (RIKEN cDNA 9130230L23 gene) #3, the entry reads GFP, % of control 117; viability (ATP), % of control 105; inactive.
Against Jak2 (Janus kinase 2), the entry reads GFP, % of control 106; viability (ATP), % of control 63.4; inactive.
With knock-down of Ccdc158 (coiled-coil domain containing 158) #1 the results were GFP, % of control 80.2; viability (ATP), % of control 71.6; inactive.
Against Ccdc158 (coiled-coil domain containing 158) #2, the values are GFP, % of control 50.1; viability (ATP), % of control 44.5; inactive.
Ccdc158 (coiled-coil domain containing 158) #3 scored GFP, % of control 85.4; viability (ATP), % of control 85.4; inactive.
Silencing of Serpinc1 #1 came out at: GFP, % of control 91.7; viability (ATP), % of control 51.1; inactive.
Silencing of Serpinc1 #2 resulted in: GFP, % of control 42.5; viability (ATP), % of control 59.4; inactive.
Against Serpinc1 #3 the deposit lists GFP, % of control 45.9; viability (ATP), % of control 68.8; inactive.
Usp17la (ubiquitin specific peptidase 17-like A) #1 gave GFP, % of control 114; viability (ATP), % of control 100; inactive.
With knock-down of Usp17la (ubiquitin specific peptidase 17-like A) #2, the record shows GFP, % of control 40; viability (ATP), % of control 51.7; inactive.
Usp17la (ubiquitin specific peptidase 17-like A) #3 showed GFP, % of control 68.1; viability (ATP), % of control 60.8; inactive.
Dnaaf2 (dynein, axonemal assembly factor 2) #1 gave GFP, % of control 74.6; viability (ATP), % of control 82.7; inactive.
With knock-down of Dnaaf2 (dynein, axonemal assembly factor 2) #2, the record shows GFP, % of control 82; viability (ATP), % of control 95.3; inactive.
Silencing of Dnaaf2 (dynein, axonemal assembly factor 2) #3 resulted in: GFP, % of control 57.8; viability (ATP), % of control 49.9; inactive.
With knock-down of Yes1 (YES proto-oncogene 1, Src family tyrosine kinase) #1, the record shows GFP, % of control 101; viability (ATP), % of control 86.1; inactive.
For Yes1 (YES proto-oncogene 1, Src family tyrosine kinase) #2 the deposit lists GFP, % of control 87.6; viability (ATP), % of control 91.8; inactive.
Depletion of Yes1 (YES proto-oncogene 1, Src family tyrosine kinase) #3 gave: GFP, % of control 63.9; viability (ATP), % of control 63.2; inactive.
Against Adar (adenosine deaminase, RNA-specific) #1, the values are GFP, % of control 43.2; viability (ATP), % of control 40.1; inactive.
Adar (adenosine deaminase, RNA-specific) #2 scored GFP, % of control 52.7; viability (ATP), % of control 89.6; inactive.
Knock-down of Adar (adenosine deaminase, RNA-specific) #3 gave: GFP, % of control 57.6; viability (ATP), % of control 48.4; inactive.
After knock-down of Nlrp4a (NLR family, pyrin domain containing 4A) #1 the results were GFP, % of control 83.2; viability (ATP), % of control 79.7; inactive.
Depletion of Nlrp4a (NLR family, pyrin domain containing 4A) #2 gave: GFP, % of control 59.2; viability (ATP), % of control 48.4; inactive.
For Nlrp4a (NLR family, pyrin domain containing 4A) #3 the deposit lists GFP, % of control 77.8; viability (ATP), % of control 61.9; inactive.
Knock-down of Fhod3 (formin homology 2 domain containing 3) #1 resulted in: GFP, % of control 56.6; viability (ATP), % of control 61.7; inactive.
Fhod3 (formin homology 2 domain containing 3) #2 showed GFP, % of control 60.4; viability (ATP), % of control 64.8; inactive.
With knock-down of Fhod3 (formin homology 2 domain containing 3) #3, the screen gave GFP, % of control 89.8; viability (ATP), % of control 53.3; inactive.
Slc6a11 #1 showed GFP, % of control 77; viability (ATP), % of control 67.9; inactive.
Knock-down of Slc6a11 #2 resulted in: GFP, % of control 90.6; viability (ATP), % of control 73.4; inactive.
Knock-down of Slc6a11 #3 came out at: GFP, % of control 75.7; viability (ATP), % of control 99.3; inactive.
With knock-down of Zan (zonadhesin) #1, the screen gave GFP, % of control 71.6; viability (ATP), % of control 62.7; inactive.
With knock-down of Zan (zonadhesin) #2, the screen gave GFP, % of control 64.5; viability (ATP), % of control 36; inactive.
Silencing of Zan (zonadhesin) #3 resulted in: GFP, % of control 92.2; viability (ATP), % of control 88; inactive.
Drd4 (dopamine receptor D4) #1 gave GFP, % of control 107; viability (ATP), % of control 57.2; inactive.
Against Drd4 (dopamine receptor D4) #2, the entry reads GFP, % of control 77.1; viability (ATP), % of control 56.7; inactive.
After knock-down of Drd4 (dopamine receptor D4) #3, the record shows GFP, % of control 86.8; viability (ATP), % of control 74.8; inactive.

Records above whose gene name starts with F or f (3):
Fhod3 (formin homology 2 domain containing 3) #1 | GFP, % of control = 56.6; viability (ATP), % of control = 61.7; outcome = inactive
Fhod3 (formin homology 2 domain containing 3) #2 | GFP, % of control = 60.4; viability (ATP), % of control = 64.8; outcome = inactive
Fhod3 (formin homology 2 domain containing 3) #3 | GFP, % of control = 89.8; viability (ATP), % of control = 53.3; outcome = inactive
